The list shows a part of the results.
Tests used:
Test in all cases: log2 fold change, soluble protein after heating vs DMSO (PISA); higher = thermal stabilisation; K562 lysate, 10 uM; active = over 0.2 and 3.5 SD of the protein, either way, in both replicates (recomputed)
[1] = compound: C1=CC=C(C=C1)[C@H](COC2=CC3=C(C=C2)NC(=O)N3)NC(=O)C4=CC=CN(C4=O)CC5=CC(=C(C=C5)F)F
Summary of the method: (§1)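 To prepare the extract, K562 pellets were dounce-homogenised in PBS pH 7.4 with 1 mM MgCl2, giving crude material at 1 mg/mL protein. This was treated with 10 μM compound for 30 min, then heated in aliquots for 3 min over 48°C-58°C before pooling and addition of NP-40 to 0.5% at 4°C. Centrifugation at 21,000xg for 90 min left soluble protein in the supernatant, which TMTpro 16plex LC-MS/MS quantified with equalised channel sums. Results are log-two fold changes in thermal stability compared with solvent controls, from duplicates.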

Sequences of proteins named here, by UniProt entry; tags and fusion partners are left off. A change or cut given only in a name is not applied to a line headed by its entry.
UniProt Q9NQG7: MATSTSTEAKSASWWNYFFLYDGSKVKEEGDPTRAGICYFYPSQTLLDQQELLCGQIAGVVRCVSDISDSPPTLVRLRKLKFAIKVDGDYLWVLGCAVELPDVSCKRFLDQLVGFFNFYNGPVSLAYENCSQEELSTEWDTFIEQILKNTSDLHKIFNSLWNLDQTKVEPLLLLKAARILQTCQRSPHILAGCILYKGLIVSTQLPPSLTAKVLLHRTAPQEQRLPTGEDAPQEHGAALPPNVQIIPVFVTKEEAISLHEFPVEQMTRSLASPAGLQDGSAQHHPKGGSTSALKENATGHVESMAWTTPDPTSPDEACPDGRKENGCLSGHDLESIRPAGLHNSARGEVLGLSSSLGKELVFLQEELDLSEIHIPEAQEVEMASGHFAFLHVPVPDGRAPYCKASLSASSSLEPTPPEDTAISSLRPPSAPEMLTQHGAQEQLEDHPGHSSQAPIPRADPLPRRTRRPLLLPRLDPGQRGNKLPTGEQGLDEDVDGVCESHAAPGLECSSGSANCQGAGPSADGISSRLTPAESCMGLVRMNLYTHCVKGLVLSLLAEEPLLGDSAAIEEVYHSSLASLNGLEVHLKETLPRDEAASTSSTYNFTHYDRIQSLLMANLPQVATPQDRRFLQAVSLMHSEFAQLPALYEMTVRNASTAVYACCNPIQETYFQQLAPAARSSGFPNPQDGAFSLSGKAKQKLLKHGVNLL
UniProt P51991: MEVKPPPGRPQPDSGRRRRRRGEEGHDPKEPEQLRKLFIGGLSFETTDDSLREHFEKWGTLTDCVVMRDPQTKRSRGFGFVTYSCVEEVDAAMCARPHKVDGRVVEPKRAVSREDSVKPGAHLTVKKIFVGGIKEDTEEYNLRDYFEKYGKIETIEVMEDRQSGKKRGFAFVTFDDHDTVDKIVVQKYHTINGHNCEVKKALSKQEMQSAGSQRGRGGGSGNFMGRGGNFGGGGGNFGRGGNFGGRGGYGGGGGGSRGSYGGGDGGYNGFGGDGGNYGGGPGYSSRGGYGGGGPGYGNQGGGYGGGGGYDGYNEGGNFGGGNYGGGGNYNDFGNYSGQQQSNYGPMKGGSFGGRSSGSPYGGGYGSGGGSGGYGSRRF
UniProt P48723: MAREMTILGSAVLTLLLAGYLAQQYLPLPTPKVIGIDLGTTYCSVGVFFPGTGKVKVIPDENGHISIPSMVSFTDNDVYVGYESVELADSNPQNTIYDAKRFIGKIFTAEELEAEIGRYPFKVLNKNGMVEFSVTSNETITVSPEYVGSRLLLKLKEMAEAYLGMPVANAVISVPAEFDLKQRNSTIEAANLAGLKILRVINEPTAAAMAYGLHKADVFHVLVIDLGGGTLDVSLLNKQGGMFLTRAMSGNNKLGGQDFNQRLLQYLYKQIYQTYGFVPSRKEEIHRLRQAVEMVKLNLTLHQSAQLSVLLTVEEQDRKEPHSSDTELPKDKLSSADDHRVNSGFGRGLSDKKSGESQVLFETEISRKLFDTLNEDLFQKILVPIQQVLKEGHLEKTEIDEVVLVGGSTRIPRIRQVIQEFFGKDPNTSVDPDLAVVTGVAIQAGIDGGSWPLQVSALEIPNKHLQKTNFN
UniProt P17096: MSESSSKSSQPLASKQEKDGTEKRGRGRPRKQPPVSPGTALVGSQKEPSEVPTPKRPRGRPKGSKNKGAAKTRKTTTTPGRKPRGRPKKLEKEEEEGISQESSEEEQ
UniProt P23327: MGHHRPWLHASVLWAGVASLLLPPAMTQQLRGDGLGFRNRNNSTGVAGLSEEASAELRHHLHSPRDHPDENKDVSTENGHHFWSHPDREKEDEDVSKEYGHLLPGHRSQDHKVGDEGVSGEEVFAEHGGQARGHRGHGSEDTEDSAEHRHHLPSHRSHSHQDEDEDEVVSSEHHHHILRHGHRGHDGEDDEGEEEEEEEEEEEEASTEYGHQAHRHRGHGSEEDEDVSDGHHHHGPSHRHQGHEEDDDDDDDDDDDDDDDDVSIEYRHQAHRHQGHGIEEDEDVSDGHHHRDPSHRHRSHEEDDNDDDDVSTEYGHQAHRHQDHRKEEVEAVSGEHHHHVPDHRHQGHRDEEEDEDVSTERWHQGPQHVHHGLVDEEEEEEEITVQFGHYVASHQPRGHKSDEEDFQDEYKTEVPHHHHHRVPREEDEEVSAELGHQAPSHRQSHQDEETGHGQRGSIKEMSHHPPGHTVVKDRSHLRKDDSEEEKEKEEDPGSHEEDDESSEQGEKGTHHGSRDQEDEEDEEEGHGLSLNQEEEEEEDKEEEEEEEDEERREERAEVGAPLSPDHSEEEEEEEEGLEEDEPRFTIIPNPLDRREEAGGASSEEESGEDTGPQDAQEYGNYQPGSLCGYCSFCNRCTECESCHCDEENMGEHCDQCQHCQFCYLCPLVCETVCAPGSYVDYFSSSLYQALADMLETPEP
UniProt H0YH80: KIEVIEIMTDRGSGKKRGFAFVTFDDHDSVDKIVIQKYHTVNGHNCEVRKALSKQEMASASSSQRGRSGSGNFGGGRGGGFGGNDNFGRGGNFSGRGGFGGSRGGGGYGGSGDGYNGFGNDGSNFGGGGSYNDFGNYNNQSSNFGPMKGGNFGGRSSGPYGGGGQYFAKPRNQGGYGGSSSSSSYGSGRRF
UniProt P52597: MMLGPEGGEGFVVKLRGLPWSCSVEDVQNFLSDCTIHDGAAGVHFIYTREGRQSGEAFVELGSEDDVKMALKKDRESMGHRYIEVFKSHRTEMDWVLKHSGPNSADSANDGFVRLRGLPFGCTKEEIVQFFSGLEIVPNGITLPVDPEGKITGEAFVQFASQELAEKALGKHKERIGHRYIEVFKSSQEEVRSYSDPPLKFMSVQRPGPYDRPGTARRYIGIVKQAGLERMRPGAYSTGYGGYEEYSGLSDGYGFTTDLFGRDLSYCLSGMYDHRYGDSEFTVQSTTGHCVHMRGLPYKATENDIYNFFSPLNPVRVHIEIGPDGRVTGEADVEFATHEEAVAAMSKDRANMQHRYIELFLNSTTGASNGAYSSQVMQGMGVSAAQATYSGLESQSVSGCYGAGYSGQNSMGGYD
UniProt P17482: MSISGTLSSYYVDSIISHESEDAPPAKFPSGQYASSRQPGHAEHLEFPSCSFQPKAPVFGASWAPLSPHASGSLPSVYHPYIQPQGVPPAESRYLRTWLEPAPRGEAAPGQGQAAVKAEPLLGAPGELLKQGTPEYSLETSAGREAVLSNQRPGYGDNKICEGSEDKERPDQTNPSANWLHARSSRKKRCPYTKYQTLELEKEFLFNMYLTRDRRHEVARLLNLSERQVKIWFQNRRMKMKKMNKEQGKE
UniProt Q6NT76: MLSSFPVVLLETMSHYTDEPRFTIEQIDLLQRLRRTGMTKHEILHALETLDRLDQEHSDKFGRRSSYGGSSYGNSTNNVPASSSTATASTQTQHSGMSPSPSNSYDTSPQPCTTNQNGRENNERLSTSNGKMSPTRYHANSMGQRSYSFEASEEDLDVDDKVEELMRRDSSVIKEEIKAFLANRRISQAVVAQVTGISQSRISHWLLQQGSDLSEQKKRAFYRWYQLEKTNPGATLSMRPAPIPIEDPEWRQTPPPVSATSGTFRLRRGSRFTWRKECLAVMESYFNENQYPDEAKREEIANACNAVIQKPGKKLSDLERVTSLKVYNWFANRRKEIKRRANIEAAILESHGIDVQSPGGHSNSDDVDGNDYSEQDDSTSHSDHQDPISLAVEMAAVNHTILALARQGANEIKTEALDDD
UniProt Q9NQE9: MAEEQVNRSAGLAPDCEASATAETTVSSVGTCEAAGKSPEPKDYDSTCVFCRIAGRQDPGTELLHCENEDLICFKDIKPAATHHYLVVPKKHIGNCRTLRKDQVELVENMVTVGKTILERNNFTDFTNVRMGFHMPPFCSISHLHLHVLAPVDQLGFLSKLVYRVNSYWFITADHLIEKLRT
UniProt P00492: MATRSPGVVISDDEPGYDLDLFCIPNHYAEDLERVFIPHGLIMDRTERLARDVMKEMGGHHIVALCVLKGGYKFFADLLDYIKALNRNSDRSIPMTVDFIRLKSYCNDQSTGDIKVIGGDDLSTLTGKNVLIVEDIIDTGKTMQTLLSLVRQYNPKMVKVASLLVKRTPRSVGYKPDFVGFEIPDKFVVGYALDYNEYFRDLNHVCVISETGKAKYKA
UniProt Q0VDF9: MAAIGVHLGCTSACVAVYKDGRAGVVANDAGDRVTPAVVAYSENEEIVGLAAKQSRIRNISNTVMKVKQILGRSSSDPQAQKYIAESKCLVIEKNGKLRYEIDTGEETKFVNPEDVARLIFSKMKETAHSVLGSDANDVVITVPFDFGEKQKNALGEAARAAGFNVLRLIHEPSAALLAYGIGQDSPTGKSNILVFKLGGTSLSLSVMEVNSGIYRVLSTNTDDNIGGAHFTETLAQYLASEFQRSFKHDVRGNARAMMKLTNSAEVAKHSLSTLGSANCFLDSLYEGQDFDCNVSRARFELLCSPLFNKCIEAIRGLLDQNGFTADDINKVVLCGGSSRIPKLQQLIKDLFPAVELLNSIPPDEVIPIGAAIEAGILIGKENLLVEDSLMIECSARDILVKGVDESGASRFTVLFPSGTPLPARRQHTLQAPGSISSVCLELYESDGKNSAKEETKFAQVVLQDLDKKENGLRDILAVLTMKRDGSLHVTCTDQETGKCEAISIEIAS
UniProt Q9BW71: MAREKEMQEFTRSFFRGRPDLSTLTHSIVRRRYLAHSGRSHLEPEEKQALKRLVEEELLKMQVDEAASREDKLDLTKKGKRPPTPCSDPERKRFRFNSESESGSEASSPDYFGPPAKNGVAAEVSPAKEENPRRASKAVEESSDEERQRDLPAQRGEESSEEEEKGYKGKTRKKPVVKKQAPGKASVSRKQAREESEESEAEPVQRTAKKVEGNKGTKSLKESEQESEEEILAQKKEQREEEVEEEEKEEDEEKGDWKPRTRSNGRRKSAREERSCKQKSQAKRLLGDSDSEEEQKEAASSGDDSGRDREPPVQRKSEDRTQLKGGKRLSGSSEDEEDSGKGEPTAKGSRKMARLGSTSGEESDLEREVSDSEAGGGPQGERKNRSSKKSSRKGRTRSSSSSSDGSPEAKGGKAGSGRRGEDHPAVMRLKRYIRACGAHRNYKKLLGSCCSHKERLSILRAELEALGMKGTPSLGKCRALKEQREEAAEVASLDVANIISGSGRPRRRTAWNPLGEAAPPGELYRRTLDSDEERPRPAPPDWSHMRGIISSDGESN
UniProt Q03014: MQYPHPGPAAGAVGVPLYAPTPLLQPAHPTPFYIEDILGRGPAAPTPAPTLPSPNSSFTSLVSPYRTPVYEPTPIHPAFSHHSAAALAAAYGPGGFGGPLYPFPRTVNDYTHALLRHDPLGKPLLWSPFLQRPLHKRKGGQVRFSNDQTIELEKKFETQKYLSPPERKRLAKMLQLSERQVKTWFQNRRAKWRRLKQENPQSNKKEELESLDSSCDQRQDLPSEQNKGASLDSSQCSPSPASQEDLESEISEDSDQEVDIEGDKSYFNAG
UniProt P09429: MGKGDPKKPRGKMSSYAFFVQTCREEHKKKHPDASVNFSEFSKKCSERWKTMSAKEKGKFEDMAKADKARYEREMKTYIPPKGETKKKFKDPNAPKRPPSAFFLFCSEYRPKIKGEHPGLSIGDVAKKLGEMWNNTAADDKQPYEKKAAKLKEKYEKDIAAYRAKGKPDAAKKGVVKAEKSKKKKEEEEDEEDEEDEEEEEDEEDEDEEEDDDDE
UniProt Q6YN16: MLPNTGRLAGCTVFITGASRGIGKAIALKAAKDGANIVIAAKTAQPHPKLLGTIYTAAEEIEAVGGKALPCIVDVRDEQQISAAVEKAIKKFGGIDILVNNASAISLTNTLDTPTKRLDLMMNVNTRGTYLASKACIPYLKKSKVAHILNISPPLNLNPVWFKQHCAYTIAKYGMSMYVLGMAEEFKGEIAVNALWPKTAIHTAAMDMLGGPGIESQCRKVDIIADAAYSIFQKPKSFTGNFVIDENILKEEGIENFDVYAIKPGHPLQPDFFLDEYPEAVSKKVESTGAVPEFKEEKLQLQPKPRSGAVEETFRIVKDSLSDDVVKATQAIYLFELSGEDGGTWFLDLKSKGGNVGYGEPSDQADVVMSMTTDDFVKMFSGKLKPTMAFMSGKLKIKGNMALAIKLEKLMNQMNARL
UniProt P07686: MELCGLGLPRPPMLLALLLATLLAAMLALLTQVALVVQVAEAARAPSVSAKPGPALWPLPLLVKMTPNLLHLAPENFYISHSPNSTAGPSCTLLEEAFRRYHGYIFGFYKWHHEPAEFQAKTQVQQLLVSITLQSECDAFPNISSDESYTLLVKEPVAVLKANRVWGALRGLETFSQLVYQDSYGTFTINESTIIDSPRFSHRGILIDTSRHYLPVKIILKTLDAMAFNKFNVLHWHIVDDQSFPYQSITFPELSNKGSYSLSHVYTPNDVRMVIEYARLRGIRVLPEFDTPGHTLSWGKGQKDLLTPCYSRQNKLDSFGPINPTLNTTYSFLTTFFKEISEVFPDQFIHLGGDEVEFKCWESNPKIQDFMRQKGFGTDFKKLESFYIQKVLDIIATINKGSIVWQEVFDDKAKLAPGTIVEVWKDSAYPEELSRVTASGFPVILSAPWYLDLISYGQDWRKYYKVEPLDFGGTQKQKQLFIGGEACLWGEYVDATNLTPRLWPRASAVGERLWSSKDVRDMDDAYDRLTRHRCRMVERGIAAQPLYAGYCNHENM

[2] = compound: CC1=C(SC2=C1C(=N[C@H](C3=NN=C(N32)C)CC(=O)N)C4=CC=C(C=C4)Cl)C
Summary of the method: as §1

[3] = compound: CC1=C2C(=CC=C1)N=C(N(C2=O)C3=CC=CC=C3C)CN4C=NC5=C(N=CN=C54)N
Summary of the method: as §1

[4] = compound: Cc1sc2c(c1C)C(c1ccc(Cl)cc1)=N[C@@H](CC(=O)OC(C)(C)C)c1nnc(C)n1-2
Summary of the method: as §1

[5] = compound: c1ccc([C@@H]2C[C@H]2NC2CCNCC2)cc1
Summary of the method: as §1

Measured: log2 fold change

HPS4 isoform 4 (UniProt Q9NQG7)
inactive: [1] 0.011 | [2] 0.243 | [3] -0.053 | [4] 0.012

HPCAL1 (UniProt P37235)
inactive: [1] 0.015 | [2] -0.05 | [3] -0.017 | [4] 0.006 | [5] -0.046

HNRNPA3 (UniProt P51991)
inactive: [1] -0.027 | [2] 0.014 | [3] -0.021 | [4] 0.126 | [5] 0.068

HSPA13 (UniProt P48723)
inactive: [1] 0.012 | [2] 0.006 | [3] 0.009 | [4] -0.008 | [5] 0.019

HERC4 (UniProt Q5GLZ8)
inactive: [1] 0.039 | [2] -0.001 | [3] 0.019 | [4] -0.02 | [5] -0.019

HMGA1 (UniProt P17096)
inactive: [1] 0.009 | [2] 0.024 | [3] 0.011 | [4] -0.031 | [5] -0.135

HRC (UniProt P23327)
inactive: [1] 0.01 | [2] 0 | [3] -0.003 | [4] -0.077 | [5] -0.056

HNRNPA1 (UniProt H0YH80)
inactive: [1] -0.214 | [2] 0.187 | [3] 0.025 | [4] -0.207 | [5] -0.116

HJURP (UniProt Q8NCD3)
inactive: [1] -0.062 | [2] 0.042 | [3] -0.123 | [4] -0.212

HNRNPF (UniProt P52597)
inactive: [1] 0.072 | [2] -0.007 | [3] 0.012 | [4] 0.024 | [5] -0.022

HSD17B7 (UniProt P56937)
inactive: [1] 0.028 | [2] -0.033 | [3] -0.037 | [4] -0.094 | [5] 0.165

HK2 (UniProt P52789)
inactive: [1] -0.021 | [2] -0.016 | [3] 0.043 | [4] 0.019 | [5] 0.063

2 records picked at random from the list so far, as already listed:
HNRNPF (UniProt P52597)
inactive: [1] 0.072 | [2] -0.007 | [3] 0.012 | [4] 0.024 | [5] -0.022

HK2 (UniProt P52789)
inactive: [1] -0.021 | [2] -0.016 | [3] 0.043 | [4] 0.019 | [5] 0.063

Additional records follow.

HOXB9 (UniProt P17482)
inactive: [1] 0 | [2] 0.047 | [3] -0.01 | [4] 0.131 | [5] -0.03

HMBOX1 isoform 5 (UniProt Q6NT76)
inactive: [1] 0.016 | [2] -0.008 | [3] 0.055 | [4] 0.027 | [5] -0.114

HINT3 (UniProt Q9NQE9)
inactive: [1] 0.009 | [2] -0.026 | [3] 0.048 | [4] -0.005 | [5] 0.008

HPRT1 (UniProt P00492)
inactive: [1] 0.03 | [2] -0.006 | [3] -0.009 | [4] 0.011 | [5] 0.048

HERC1 (UniProt Q15751)
inactive: [1] -0.019 | [2] -0.023 | [3] 0.028 | [4] 0.007 | [5] -0.014

HSPA14 (UniProt Q0VDF9)
inactive: [1] 0 | [2] 0.011 | [3] -0.004 | [4] 0.025 | [5] 0.017

HIRIP3 (UniProt Q9BW71)
inactive: [1] 0.013 | [2] 0.005 | [3] -0.019 | [4] 0.003 | [5] 0.023

HHEX (UniProt Q03014)
inactive: [1] -0.06 | [2] 0.084 | [3] -0.013 | [4] 0.024 | [5] -0.068

HMGB1 (UniProt P09429)
inactive: [1] 0.053 | [2] -0.048 | [3] 0.032 | [4] 0.056 | [5] 0.115

HSDL2 (UniProt Q6YN16)
inactive: [1] 0.026 | [2] 0.027 | [3] 0.031 | [4] -0.009 | [5] -0.013

HECTD3 (UniProt Q5T447)
inactive: [1] -0.06 | [2] 0.038 | [3] 0.046 | [4] 0.034 | [5] 0.06

HEXB (UniProt P07686)
inactive: [1] 0.008 | [2] 0.023 | [3] 0.005 | [4] 0.025 | [5] 0.054

HMGN2 (UniProt P05204)
inactive: [1] -0.004 | [2] -0.037 | [3] -0.032 | [4] -0.064 | [5] -0.034

Source: the supplement of paper PMC10849652
